Data as given in PubChem BioAssay AID1259424 (University of Nebraska Medical Center, 2018)
Assay: 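Seek colon cancer survival genes behaving like KSR1, using a six-gene signature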 (primary screen). System: human HCT116 colon cancer cells. Reagents: siRNA pool against human genes, 50 nM. Measured: 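Six signature mRNAs by branched-DNA multiplex assay, scaled to two housekeeping genes and non-targeting median, log2; matched to mean KSR1 knockdown profile by Pearson correlation and euclidean distance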. Direction: mean correlation with KSR1 profile and KSR1 correlation: higher = expression change more like KSR1 knockdown; mean distance from KSR1 profile: higher = expression change less like KSR1 knockdown.
Shown is an unselected part of about 14,000 deposited reagents. 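Higher correlation or smaller distance means closer resemblance to KSR1 loss; control wells, including KSR1 knockdowns, recur on many plates.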 Not all columns of the deposit are shown. Not stated in the record: the time to read-out.

| gene | PubChem SID | mean correlation with KSR1 profile | mean distance from KSR1 profile | KSR1 correlation, replicate 1 | KSR1 correlation, replicate 2 |
| --- | --- | --- | --- | --- | --- |
| H2AC20 | SID363994607 | 0.575 | 1.46 | 0.705 | 0.327 |
| AP1S1 | SID363992567 | -0.154 | 1.98 | -0.0648 | -0.101 |
| ZMAT4 | SID364002943 | 0.458 | 1.91 | 0.564 | 0.638 |
| PRDM8 | SID364001571 | 0.118 | 1.8 | 0.02 | 0.224 |
| USP53 | SID364005241 | -0.402 | 1.57 | -0.411 | -0.482 |
| TPD52 | SID363996016 | -0.447 | 1.81 | -0.471 | -0.486 |
| ZNF137P | SID363994540 | -0.435 | 1.35 | -0.393 | -0.406 |
| CPE | SID363993086 | -0.0207 | 3.13 | -0.0435 | -0.0584 |
| NR4A2 | SID363997012 | 0.718 | 1.69 | 0.852 | 0.635 |
| CR2 | SID363993090 | 0.186 | 1.29 | 0.451 | 0.0688 |
| CGN | SID364001816 | -0.741 | 2.57 | -0.614 | -0.468 |
| ANKRD26 | SID364005506 | 0.411 | 1.04 | 0.496 | 0.451 |
| RALGPS2 | SID364000726 | 0.29 | 1.13 | 0.36 | 0.467 |
| VPS13A | SID363999351 | 0.19 | 1.72 | -0.0829 | 0.136 |
| PDE4D | SID363997028 | 0.413 | 1.94 | 0.0472 | 0.653 |
| ISG20L2 | SID364003542 | 0.147 | 1.89 | 0.00492 | -0.117 |
| OR51E2 | SID364003427 | 0.885 | 1.6 | 0.883 | 0.887 |
| ZSCAN32 | SID364000544 | -0.737 | 3.21 | -0.492 | -0.694 |
| RECK | SID364002016 | -0.476 | 3.4 | -0.458 | -0.46 |
| ATP5MC3 | SID363992912 | 0.446 | 1.81 | 0.477 | 0.335 |
| FANCI | SID364000863 | 0.0432 | 3.21 | -0.0405 | -0.0359 |
| SLC2A2 | SID363991672 | 0.212 | 1.38 | 0.142 | 0.119 |
| KIRREL1 | SID364000904 | -0.311 | 3.44 | -0.215 | -0.2 |
| MMP16 | SID363996808 | -0.75 | 1.58 | -0.731 | -0.667 |
| LOC51212 (retired record) | SID364000076 | -0.217 | 2.52 | -0.186 | -0.289 |
| PKP1 | SID363991631 | 0.0918 | 2.29 | 0.284 | 0.128 |
| ERCC8 | SID363991419 | 0.127 | 1.96 | 0.17 | 0.437 |
| ACOT11 | SID363999565 | -0.836 | 2.94 | -0.762 | -0.83 |
| MPP3 | SID363993145 | 0.0985 | 2.12 | 0.203 | 0.407 |
| HCG9 | SID363996719 | 0.633 | 1.78 | 0.402 | 0.649 |
| DUSP19 | SID364004509 | 0.26 | 1.18 | 0.282 | 0.0335 |
| EGFL8 | SID364003395 | 0.219 | 2.6 | -0.126 | 0.196 |

Continued (7 carried over from the part before).
| gene | PubChem SID | mean correlation with KSR1 profile | mean distance from KSR1 profile | KSR1 correlation, replicate 1 | KSR1 correlation, replicate 2 |
| --- | --- | --- | --- | --- | --- |
| PKP1 | SID363991631 | 0.0918 | 2.29 | 0.284 | 0.128 |
| ERCC8 | SID363991419 | 0.127 | 1.96 | 0.17 | 0.437 |
| ACOT11 | SID363999565 | -0.836 | 2.94 | -0.762 | -0.83 |
| MPP3 | SID363993145 | 0.0985 | 2.12 | 0.203 | 0.407 |
| HCG9 | SID363996719 | 0.633 | 1.78 | 0.402 | 0.649 |
| DUSP19 | SID364004509 | 0.26 | 1.18 | 0.282 | 0.0335 |
| EGFL8 | SID364003395 | 0.219 | 2.6 | -0.126 | 0.196 |
| EHD2 | SID363998973 | -0.318 | 1.86 | -0.714 | -0.408 |
| PEAK1 | SID364005419 | 0.596 | 2.21 | 0.671 | 0.483 |
| PAFAH2 | SID363991768 | -0.394 | 2.17 | -0.549 | -0.333 |
| DEFB1 | SID363996141 | -0.42 | 3.22 | -0.398 | -0.46 |
| KAT2A | SID364001994 | -0.457 | 2.28 | -0.503 | -0.589 |
| SEC24A | SID364005280 | 0.115 | 1.3 | -0.0846 | 0.119 |
| SAG | SID363991864 | 0.383 | 1.73 | 0.373 | 0.356 |
| CD74 | SID363995341 | 0.0588 | 1.49 | -0.0534 | -0.0263 |
| SEPSECS | SID364000289 | -0.44 | 2.11 | -0.429 | -0.413 |
| IMPA2 | SID363998655 | -0.243 | 2.92 | -0.119 | -0.299 |
| TRPV4 | SID364002149 | 0.0778 | 2.69 | 0.167 | -0.0789 |
| PGM2 | SID364000947 | -0.162 | 2.21 | -0.0518 | 0.00227 |
| PPM1A | SID364001944 | -0.0166 | 1.78 | 0.0615 | -0.0791 |
| GNRHR2 | SID364004455 | 0.777 | 2.31 | 0.189 | 0.939 |
| TMEM143 | SID364000934 | -0.214 | 2.79 | -0.00901 | -0.256 |
| NDUFB1 | SID363995517 | -0.435 | 1.83 | -0.266 | -0.333 |
| ZNF696 | SID364003478 | 0.525 | 1.36 | 0.52 | 0.66 |
| RASL12 | SID364000197 | 0.0738 | 2.87 | -0.051 | 0.059 |
